This assay concerns the target T1, LIKE HETEROCHROMATIN PROTEIN 1 (LHP1) fused to NYFP (Arabidopsis thaliana) (UniProt Q946J8).
T1 sequence: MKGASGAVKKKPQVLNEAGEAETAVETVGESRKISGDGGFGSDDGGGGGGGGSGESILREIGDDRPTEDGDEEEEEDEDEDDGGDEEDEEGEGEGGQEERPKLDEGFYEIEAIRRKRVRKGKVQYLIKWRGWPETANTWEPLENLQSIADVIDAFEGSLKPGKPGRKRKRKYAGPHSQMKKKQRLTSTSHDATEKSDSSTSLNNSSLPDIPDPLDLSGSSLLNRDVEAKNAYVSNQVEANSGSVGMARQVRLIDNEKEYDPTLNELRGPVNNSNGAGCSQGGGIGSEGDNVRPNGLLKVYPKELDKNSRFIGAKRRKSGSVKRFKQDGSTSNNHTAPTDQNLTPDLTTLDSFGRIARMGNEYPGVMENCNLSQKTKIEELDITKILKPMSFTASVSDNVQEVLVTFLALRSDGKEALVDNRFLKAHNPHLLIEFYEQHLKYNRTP
Nature of the assay: split reporter; BiFC in transiently transformed Nicotiana benthamiana leaves; YFPC-VIM1 co-transformed with YFPN-LHP1, mCherry as membrane and nuclear marker; confocal microscopy 2 days after infiltration.

Drawing on PMC9422110, this text covers binding for one molecule.

These are yes or no findings as the source states them, for the method shown. Binding seen in cells or lysates may run through a third protein. Some entries that bind do so weakly or less than the wild type. Sequences can lack the tags named with a protein.

B1: VARIANT IN …ON 1 (VIM1) fused to CYFP (protein, UniProt Q8VYZ0 1-645)
chain: MARDIQLPCDGDGVCMRCKSNPPPEESLTCGTCVTPWHVSCLSSPPKTLASTLQWHCPDCSGEIDPLPVSGGATGFESAGSDLVAAIRAIEADESLSTEEKAKMRQRLLSGKGVEEDDEEEKRKKKGKGKNPNLDVLSALGDNLMCSFCMQLPERPVTKPCGHNACLKCFEKWMGQGKRTCGKCRSIIPEKMAKNPRINSSLVAAIRLAKVSKSAAATTSKVFHFISNQDRPDKAFTTERAKKTGKANAASGKIYVTIPPDHFGPIPAENDPVRNQGLLVGESWEDRLECRQWGAHFPHVAGIAGQSTYGAQSVALSGGYKDDEDHGEWFLYTGSGGRDLSGNKRTNKEQSFDQKFEKSNAALKLSCKLGYPVRVVRSHKEKRSAYAPEEGVRYDGVYRIEKCWRKVGVQGSFKVCRYLFVRCDNEPAPWTSDENGDRPRPIPNIPELNMATDLFERKETPSWDFDEGEGCWKWMKPPPASKKSVNVLAPEERKNLRKAIKAAHSNTMRARLLKEFKCQICQQVLTLPVTTPCAHNFCKACLEAKFAGKTLVRERSTGGRTLRSRKNVLNCPCCPTDISDFLQNPQVNREVAEVIEKLKTQEEDTAELEDEDEGECSGTTPEEDSEQPKKRIKLDTDATVSATIR
As to B1, the binding entry is listed as “binds”.
